From the supplement of paper PMC10849652 come the findings set out here.

Amino acid sequences for entries named in this document (tags omitted). A change or cut given only in a name is not applied to a line headed by its entry.
UniProt Q9Y5P6: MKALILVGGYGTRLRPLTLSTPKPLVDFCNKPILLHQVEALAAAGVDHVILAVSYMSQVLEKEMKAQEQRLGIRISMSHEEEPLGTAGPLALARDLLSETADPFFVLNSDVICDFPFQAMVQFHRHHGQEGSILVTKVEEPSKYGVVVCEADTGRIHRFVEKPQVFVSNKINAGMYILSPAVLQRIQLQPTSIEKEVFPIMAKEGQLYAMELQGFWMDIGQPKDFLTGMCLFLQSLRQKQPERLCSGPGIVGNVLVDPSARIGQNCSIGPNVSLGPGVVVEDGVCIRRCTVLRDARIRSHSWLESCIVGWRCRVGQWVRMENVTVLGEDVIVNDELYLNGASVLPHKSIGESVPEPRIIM
UniProt P62993, whole entry, looked up: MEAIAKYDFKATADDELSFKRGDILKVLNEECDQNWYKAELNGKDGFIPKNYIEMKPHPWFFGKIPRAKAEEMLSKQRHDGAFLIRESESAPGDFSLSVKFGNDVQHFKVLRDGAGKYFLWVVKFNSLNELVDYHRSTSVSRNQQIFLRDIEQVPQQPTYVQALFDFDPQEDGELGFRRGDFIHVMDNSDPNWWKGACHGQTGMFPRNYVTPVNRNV
UniProt Q9BRT9, whole entry, looked up: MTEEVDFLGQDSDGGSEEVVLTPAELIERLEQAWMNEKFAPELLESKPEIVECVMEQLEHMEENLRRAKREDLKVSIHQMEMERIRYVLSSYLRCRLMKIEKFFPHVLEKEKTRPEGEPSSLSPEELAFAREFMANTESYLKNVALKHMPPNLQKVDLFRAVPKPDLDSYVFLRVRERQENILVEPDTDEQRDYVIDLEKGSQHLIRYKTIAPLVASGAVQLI
UniProt O95249: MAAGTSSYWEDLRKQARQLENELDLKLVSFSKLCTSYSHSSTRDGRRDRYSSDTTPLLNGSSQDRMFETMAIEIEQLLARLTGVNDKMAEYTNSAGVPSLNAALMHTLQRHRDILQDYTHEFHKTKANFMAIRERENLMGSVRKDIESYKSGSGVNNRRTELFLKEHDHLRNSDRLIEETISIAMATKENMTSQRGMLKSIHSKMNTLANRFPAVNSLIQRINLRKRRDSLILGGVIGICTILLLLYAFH
UniProt P43304: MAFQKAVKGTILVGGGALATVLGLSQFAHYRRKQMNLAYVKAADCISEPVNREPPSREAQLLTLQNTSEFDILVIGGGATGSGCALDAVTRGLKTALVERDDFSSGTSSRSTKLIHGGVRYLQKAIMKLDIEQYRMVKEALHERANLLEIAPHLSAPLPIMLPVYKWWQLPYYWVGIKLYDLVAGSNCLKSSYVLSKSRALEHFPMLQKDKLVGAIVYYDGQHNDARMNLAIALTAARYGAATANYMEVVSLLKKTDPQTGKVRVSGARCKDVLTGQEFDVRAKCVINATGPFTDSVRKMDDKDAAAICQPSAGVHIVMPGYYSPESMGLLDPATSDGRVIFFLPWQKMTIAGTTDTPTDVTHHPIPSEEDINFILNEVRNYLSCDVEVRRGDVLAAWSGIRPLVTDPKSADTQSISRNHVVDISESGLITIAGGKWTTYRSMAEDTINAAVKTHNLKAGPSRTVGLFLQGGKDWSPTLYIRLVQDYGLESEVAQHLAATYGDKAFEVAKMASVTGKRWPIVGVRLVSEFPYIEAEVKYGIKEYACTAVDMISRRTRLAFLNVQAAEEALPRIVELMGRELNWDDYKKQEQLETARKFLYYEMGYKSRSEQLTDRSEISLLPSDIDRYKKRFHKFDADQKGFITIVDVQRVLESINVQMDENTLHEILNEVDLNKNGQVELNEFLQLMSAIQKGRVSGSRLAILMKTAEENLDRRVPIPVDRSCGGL
UniProt Q9UHW5, whole entry, looked up: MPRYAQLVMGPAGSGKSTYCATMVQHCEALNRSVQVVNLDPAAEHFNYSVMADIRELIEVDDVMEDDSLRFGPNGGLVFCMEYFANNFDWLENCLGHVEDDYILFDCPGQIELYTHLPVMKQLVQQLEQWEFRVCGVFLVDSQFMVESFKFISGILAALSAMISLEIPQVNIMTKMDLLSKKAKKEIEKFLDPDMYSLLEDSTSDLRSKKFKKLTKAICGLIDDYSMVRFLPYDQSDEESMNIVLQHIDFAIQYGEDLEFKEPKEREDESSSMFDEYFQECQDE
UniProt Q8TDQ7: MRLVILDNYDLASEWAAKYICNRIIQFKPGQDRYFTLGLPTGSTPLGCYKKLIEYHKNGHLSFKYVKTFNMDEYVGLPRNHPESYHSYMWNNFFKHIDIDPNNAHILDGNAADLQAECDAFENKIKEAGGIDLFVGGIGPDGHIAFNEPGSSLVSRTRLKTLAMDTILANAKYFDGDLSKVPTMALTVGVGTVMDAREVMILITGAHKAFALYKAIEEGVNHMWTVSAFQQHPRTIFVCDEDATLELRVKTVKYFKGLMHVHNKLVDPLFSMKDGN
UniProt Q9P2T1: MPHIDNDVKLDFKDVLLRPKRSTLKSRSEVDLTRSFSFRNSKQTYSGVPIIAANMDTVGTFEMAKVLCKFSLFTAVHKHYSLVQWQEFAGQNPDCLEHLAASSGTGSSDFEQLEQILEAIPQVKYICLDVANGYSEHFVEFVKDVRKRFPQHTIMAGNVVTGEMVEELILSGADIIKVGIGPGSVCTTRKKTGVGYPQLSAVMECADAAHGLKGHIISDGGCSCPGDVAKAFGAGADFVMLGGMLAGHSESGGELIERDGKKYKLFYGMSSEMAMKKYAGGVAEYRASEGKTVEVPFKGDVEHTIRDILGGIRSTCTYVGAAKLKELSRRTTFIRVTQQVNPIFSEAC
UniProt O43292: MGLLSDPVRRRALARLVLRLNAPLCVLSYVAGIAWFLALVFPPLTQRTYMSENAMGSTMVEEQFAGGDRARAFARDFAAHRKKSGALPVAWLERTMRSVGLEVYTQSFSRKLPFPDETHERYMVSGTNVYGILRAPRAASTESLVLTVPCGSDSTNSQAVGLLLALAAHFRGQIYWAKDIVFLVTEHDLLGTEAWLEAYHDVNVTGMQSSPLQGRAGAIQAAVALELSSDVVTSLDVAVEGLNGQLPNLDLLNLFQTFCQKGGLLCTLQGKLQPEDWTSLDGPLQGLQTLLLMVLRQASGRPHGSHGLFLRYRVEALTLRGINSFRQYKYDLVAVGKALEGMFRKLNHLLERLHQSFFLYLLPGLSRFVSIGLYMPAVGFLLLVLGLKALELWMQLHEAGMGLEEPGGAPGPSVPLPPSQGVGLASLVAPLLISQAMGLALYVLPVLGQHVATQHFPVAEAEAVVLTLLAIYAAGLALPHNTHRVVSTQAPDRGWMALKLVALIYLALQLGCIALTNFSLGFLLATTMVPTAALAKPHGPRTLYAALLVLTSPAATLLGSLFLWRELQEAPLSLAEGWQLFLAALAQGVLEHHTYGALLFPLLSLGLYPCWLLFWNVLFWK
UniProt O00461: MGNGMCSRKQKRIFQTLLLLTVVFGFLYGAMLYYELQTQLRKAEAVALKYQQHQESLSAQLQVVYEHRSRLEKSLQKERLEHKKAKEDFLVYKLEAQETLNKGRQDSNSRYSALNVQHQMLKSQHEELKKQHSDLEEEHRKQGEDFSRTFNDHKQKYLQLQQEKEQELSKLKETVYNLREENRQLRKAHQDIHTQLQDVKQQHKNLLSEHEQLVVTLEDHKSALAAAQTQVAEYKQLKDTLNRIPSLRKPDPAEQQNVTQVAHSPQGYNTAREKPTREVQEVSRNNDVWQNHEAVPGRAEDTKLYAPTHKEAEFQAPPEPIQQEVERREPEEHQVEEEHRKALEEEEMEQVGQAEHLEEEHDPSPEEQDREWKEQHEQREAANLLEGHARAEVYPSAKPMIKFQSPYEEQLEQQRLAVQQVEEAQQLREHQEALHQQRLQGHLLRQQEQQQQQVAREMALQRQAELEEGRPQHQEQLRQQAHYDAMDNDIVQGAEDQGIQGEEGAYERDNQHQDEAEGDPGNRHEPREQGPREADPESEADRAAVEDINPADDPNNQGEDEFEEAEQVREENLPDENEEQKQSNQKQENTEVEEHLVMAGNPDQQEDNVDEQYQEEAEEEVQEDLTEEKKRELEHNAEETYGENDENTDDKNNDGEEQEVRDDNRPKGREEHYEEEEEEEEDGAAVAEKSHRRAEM
UniProt Q9Y3E0: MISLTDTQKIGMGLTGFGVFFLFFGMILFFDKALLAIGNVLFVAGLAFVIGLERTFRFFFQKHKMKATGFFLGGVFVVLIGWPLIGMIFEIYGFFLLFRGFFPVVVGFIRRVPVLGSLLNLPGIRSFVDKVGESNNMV
UniProt Q92896: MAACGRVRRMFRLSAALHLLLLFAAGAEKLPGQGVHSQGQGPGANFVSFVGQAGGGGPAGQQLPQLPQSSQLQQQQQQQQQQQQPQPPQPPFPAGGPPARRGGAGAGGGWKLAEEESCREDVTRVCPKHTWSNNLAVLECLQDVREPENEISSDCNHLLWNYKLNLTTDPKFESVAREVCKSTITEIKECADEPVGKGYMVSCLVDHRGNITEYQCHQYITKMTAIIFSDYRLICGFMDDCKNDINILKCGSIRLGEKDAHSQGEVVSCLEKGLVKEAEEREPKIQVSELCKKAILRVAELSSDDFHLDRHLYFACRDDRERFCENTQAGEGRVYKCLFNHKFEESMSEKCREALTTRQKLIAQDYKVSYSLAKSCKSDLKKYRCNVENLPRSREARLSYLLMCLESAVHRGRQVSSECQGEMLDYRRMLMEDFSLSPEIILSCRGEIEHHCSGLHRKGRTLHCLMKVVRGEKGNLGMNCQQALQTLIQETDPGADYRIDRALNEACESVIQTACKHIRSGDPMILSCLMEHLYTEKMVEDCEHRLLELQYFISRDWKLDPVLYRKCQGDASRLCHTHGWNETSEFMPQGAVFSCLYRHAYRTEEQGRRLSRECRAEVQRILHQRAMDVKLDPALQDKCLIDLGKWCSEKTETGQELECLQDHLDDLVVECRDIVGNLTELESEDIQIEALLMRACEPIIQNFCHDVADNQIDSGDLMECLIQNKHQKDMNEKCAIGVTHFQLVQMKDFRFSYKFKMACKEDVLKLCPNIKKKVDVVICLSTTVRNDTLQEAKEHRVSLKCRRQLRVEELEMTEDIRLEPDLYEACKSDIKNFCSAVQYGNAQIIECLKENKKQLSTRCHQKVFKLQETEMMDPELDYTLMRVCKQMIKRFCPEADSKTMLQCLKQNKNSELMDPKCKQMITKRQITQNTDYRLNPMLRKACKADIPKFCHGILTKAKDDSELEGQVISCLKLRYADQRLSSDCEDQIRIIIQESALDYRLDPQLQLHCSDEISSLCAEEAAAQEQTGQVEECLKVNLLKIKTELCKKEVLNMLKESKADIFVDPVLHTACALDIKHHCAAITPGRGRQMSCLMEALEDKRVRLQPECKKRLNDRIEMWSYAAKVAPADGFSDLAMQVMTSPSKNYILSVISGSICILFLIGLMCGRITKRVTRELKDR
UniProt Q12849: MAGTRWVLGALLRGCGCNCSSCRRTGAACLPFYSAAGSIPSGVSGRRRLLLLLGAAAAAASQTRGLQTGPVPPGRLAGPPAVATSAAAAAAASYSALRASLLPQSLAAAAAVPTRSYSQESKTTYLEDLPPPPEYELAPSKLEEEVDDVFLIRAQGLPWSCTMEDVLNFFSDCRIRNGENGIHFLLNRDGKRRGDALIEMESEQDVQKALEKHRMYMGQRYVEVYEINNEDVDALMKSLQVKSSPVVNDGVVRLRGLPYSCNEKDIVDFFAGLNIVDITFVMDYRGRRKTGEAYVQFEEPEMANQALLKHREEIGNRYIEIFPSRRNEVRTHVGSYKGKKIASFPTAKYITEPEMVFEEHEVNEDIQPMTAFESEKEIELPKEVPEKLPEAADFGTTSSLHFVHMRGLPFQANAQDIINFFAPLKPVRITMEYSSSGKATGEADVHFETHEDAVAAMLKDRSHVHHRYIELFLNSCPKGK
UniProt P17900: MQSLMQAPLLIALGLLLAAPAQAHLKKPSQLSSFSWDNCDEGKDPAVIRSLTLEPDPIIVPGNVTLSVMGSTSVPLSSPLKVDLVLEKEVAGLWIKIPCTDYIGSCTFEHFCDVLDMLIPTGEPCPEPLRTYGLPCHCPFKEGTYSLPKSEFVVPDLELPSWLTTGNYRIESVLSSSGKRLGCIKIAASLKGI
UniProt O60234, whole entry, looked up: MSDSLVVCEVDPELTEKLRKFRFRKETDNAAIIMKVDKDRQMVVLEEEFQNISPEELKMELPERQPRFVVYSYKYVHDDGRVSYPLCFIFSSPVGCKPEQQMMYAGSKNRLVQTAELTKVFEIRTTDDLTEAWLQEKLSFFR
UniProt P50148, whole entry, looked up: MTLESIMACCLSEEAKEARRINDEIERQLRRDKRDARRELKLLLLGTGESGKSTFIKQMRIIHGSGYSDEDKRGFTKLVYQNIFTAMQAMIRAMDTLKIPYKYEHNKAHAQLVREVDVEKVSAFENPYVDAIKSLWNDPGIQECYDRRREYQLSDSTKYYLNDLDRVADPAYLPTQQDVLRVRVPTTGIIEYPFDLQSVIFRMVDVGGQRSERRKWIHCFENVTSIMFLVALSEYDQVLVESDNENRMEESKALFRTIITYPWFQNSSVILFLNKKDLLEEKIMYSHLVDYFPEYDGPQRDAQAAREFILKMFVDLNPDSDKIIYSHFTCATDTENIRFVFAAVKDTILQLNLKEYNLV

The list shows a part of the results.

Compound in the first assay: Cc1nc(Nc2n[nH]c3c2CN(C(=O)N[C@H](CN(C)C)c2ccccc2)C3(C)C)c2sccc2n1
Description: log2 fold change, soluble protein after heating vs DMSO (PISA); higher = thermal stabilisation; K562 cells, 10 uM, 30 min; active = over 0.2 and 3.5 SD of the protein, either way, in both replicates (recomputed). The gist of the method:
(§1)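 K562 cells at 2×10^6 cells/mL were treated for 30 min with 10 μM compound, and aliquots were heated for 3 min over 48°C-58°C before pooling. Extraction used PBS with 0.5% NP-40 at 4°C, and soluble protein was the supernatant after 21,000xg for 90 min, measured by TMTpro 16plex LC-MS/MS with channel sums equalised. Thermal stability values, relative to control samples and from duplicates, are log2 fold changes.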
GMPPB isoform 2 (UniProt Q9Y5P6): the log2 fold change is inactive: -0.013.
As to GK (UniProt P32189), the log2 fold change is inactive: 0.01.
Same read-out and setting: the same measure for GRN (UniProt P28799): inactive: -0.079; for GRB2 (UniProt P62993): inactive: -0.031; for GINS4 (UniProt Q9BRT9): inactive: -0.063.
Still for that read-out and setting: next, GRAP2 (UniProt O75791): inactive: -0.112.
On the same count and under the same terms, the same measure for GPD1L (UniProt Q8N335): inactive: -0.099; for GNA13 (UniProt Q14344): inactive: -0.035.
For the target GOSR1 (UniProt O95249), the log2 fold change is inactive: -0.012.
As to GPATCH8 (UniProt Q9UKJ3), the log2 fold change was inactive: -0.22.
Still for that read-out and setting: next, GPALPP1 (UniProt Q8IXQ4): inactive: 0.046; GPD2 (UniProt P43304): inactive: -0.002; GPRIN1 (UniProt Q7Z2K8): inactive: -0.076.
Still for that read-out and setting: the same measure for GPN3 isoform 2 (UniProt Q9UHW5): inactive: 0.095; for GNPDA2 (UniProt Q8TDQ7): inactive: 0.033.
Same read-out and setting: next, GMPR2 isoform 2 (UniProt Q9P2T1): inactive: -0.001; GNE isoform 2 (UniProt Q9Y223): inactive: 0.069; GPAA1 (UniProt O43292): inactive: 0.034.
Turning to GPR107 (UniProt Q5VW38), the log2 fold change was inactive: 0.029.
On the same count and under the same terms, the same measure for GORASP2 isoform 3 (UniProt Q9H8Y8): inactive: -0.161; for GOLIM4 (UniProt O00461): inactive: -0.063.
Consider GPN1 isoform 5 (UniProt Q9HCN4), for which the log2 fold change was inactive: 0.02.
On to GOLT1B (UniProt Q9Y3E0), for which the log2 fold change is inactive: 0.065.
Still for that read-out and setting: the same measure for GRWD1 (UniProt Q9BQ67): inactive: 0.016; for GRHPR (UniProt Q9UBQ7): inactive: 0.02.
On to GLG1 isoform 2 (UniProt Q92896), for which the log2 fold change was inactive: 0.005.
For GRSF1 (UniProt Q12849), the log2 fold change is inactive: -0.27.
With GPHN isoform 2 (UniProt Q9NQX3), the log2 fold change was inactive: 0.
Still for that read-out and setting: the same measure for GLOD4 isoform 2 (UniProt Q9HC38): inactive: -0.012; for GLB1L2 (UniProt Q8IW92): inactive: 0.116; for GIPC1 (UniProt O14908): inactive: -0.074.
Same read-out and setting: the same measure for GOLGA2 (UniProt Q08379): inactive: -0.06; for GINS3 (UniProt Q9BRX5): inactive: -0.059.
Same read-out and setting: next, GOLGA5 (UniProt Q8TBA6): inactive: -0.045; GOT1 (UniProt P17174): inactive: 0.016.
For GM2A (UniProt P17900), the log2 fold change was inactive: -0.002.
With GMFG (UniProt O60234), the log2 fold change was inactive: -0.052.
Turning to GNAQ (UniProt P50148), the log2 fold change was inactive: 0.014.
Take GPATCH11 (UniProt Q8N954): the log2 fold change was inactive: 0.019.

Compound in the next assay: Cc1nc(Nc2ncc(C(=O)Nc3c(C)cccc3Cl)s2)cc(N2CCN(CCO)CC2)n1 [dasatinib]
The assay is described as above. The gist of the method:
as §1
With GMPPB isoform 2 (UniProt Q9Y5P6), the log2 fold change is inactive: -0.029.
As for GK (UniProt P32189), the log2 fold change was inactive: 0.046.
With GRN (UniProt P28799), the log2 fold change is inactive: 0.136.
For GRB2 (UniProt P62993), the log2 fold change is inactive: 0.114.
The same measure, in the same setting: next, GINS4 (UniProt Q9BRT9): inactive: -0.106; GRAP2 (UniProt O75791): inactive: -0.141; GPD1L (UniProt Q8N335): inactive: 0.025.
On the same count and under the same terms, the same measure for GNA13 (UniProt Q14344): inactive: -0.047.
On the same count and under the same terms, the same measure for GOSR1 (UniProt O95249): inactive: 0.034; for GPATCH8 (UniProt Q9UKJ3): inactive: -0.045; for GPALPP1 (UniProt Q8IXQ4): inactive: 0.03.
Take GPD2 (UniProt P43304): the log2 fold change is inactive: 0.023.
On the same count and under the same terms, the same measure for GPRIN1 (UniProt Q7Z2K8): inactive: -0.001; for GPN3 isoform 2 (UniProt Q9UHW5): inactive: 0.056; for GNPDA2 (UniProt Q8TDQ7): inactive: 0.089.
Still for that read-out and setting: next, GMPR2 isoform 2 (UniProt Q9P2T1): inactive: 0.016.
Take GNE isoform 2 (UniProt Q9Y223): the log2 fold change was inactive: -0.04.
Same read-out and setting: next, GPAA1 (UniProt O43292): inactive: -0.02.
The same measure, in the same setting: the same measure for GPR107 (UniProt Q5VW38): inactive: 0.032.
In the case of GORASP2 isoform 3 (UniProt Q9H8Y8), the log2 fold change was inactive: -0.204.
The same measure, in the same setting: the same measure for GOLIM4 (UniProt O00461): inactive: 0.049; for GPN1 isoform 5 (UniProt Q9HCN4): inactive: -0.018.
On to GOLT1B (UniProt Q9Y3E0), for which the log2 fold change was inactive: 0.048.
With GRWD1 (UniProt Q9BQ67), the log2 fold change is inactive: 0.21.
On the same count and under the same terms, next, GRHPR (UniProt Q9UBQ7): inactive: -0.055; GLG1 isoform 2 (UniProt Q92896): inactive: 0.
On the same count and under the same terms, next, GRSF1 (UniProt Q12849): inactive: -0.156.
Same read-out and setting: next, GPHN isoform 2 (UniProt Q9NQX3): inactive: 0.028; GLOD4 isoform 2 (UniProt Q9HC38): inactive: -0.091; GLB1L2 (UniProt Q8IW92): inactive: 0.104.
For the target GIPC1 (UniProt O14908), the log2 fold change is inactive: -0.082.
On the same count and under the same terms, next, GOLGA2 (UniProt Q08379): inactive: 0.072; GINS3 (UniProt Q9BRX5): inactive: -0.091.
GOLGA5 (UniProt Q8TBA6): the log2 fold change was inactive: 0.038.
For GOT1 (UniProt P17174), the log2 fold change is inactive: 0.031.
Still for that read-out and setting: next, GM2A (UniProt P17900): inactive: 0.064; GMFG (UniProt O60234): inactive: -0.074; GNAQ (UniProt P50148): inactive: 0.008.
With GPATCH11 (UniProt Q8N954), the log2 fold change was inactive: 0.005.
